# Data as given in PubChem BioAssay AID504764 (Drosophila RNAi Screening Center, 2011)
# Test: 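Knock-downs that raise or lower a Notch target reporter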 (primary screen)
# System: Drosophila Kc167 cells
# Reagents: long dsRNA against Drosophila genes
# Timing: about 5 days (4 days dsRNA, then 24 h after transfection)
# Conditions: transfection of constitutively active membrane-tethered Notch lacking the extracellular domain, read 24 h later
# Read-out: 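Light from a Notch-responsive E(spl)m3 luciferase reporter under active Notch, with control-promoter and no-Notch reporter wells to normalise; raw counts from paired wells a and b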
# Scale: induced reporter light, run 1, well a and induced reporter light, run 1, well b: higher = more light from the Notch target reporter with active Notch; control promoter light, run 1, well a and control promoter light, run 1, well b: higher = more light from the viral control promoter (cell number, transfection, viability); uninduced reporter light, run 1, well a: higher = more light from the Notch target reporter without active Notch
# Call rule: 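Wells with low control signal or poorly matching duplicates excluded; duplicates averaged; per source plate, z beyond ±2 for induced/control log2 ratio or beyond ±1.8 for induced/uninduced marks a hit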
# Meaning of the calls: active = modifier hit (raised or lowered Notch signal); inactive = not a hit
# In all, the deposit lists about 22,000 reagents; shown is an unselected part of those that have a named target and a result. Of all reagents, 403 (1.9%) were called active. 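Unnormalised raw counts per well; ratio z-scores behind the hit calls and whether each hit raises or lowers signal are not deposited.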 A number with no mark means an inactive call. A plus sign joins genes that one reagent is predicted to hit. Reagent sequences are not shown. Not stated in the record: the amount of reagent.
gene,amplicon,"induced reporter light, run 1, well a","induced reporter light, run 1, well b","control promoter light, run 1, well a","control promoter light, run 1, well b","uninduced reporter light, run 1, well a"
djl,DRSC12578,65800,91565,78420,57320,7075
cuff,DRSC06315,1.30e5,1.22e5,1.86e5,1.59e5,11145
CG17010,DRSC02559,1.93e5,2.31e5,1.77e5,1.65e5,14668
RAF2,DRSC10443,1.10e5,1.43e5,75390,80445,9910
RAF2,DRSC10454,2.02e5,1.57e5,2.05e5,1.82e5,8895
14-3-3epsilon,DRSC16370,1.14e5 (active),1.16e5,1.91e5,1.79e5,10500
CG17508,DRSC07771,1.18e5,1.70e5,3.15e5,2.26e5,8460
rgn,DRSC11609,94030,1.15e5,71170,78765,7500
CG14933 + CG42486,DRSC02415,1.62e5,2.02e5,1.07e5,1.48e5,22820
Obp85a,DRSC14362,78670,95740,81400,92370,4780
CG12655,DRSC20678,76960,79185,91445,1.31e5,10165
ghi,DRSC08985,2.40e5,2.30e5,2.27e5,2.37e5,15650
CG12848,DRSC04128,2.42e5,2.40e5,2.09e5,1.92e5,17145
Ssl2,DRSC14395,1.47e5,1.17e5,1.80e5,1.88e5,12810
CG13461,DRSC10008,1.87e5,1.52e5,1.71e5,1.80e5,13150
Vps36,DRSC09785,2.00e5,1.74e5,2.90e5,2.36e5,9935
CG33253,DRSC19547,87185,63190,82635,88485,7985
CG33253,DRSC20053,87515,1.00e5,89010,1.48e5,10740
Gr8a,DRSC18043,1.17e5,1.28e5,2.36e5,2.36e5,8810
Hr78,DRSC11866,1.57e5,1.55e5,55330,69925,10138
Obp19d,DRSC20569,75120,86150,94380,1.02e5,9980
ref(2)P,DRSC03601,15220,15725,19210,12900,1085
CG15643,DRSC19679,90580,71385,95080,67500,10290
C901,DRSC19351,1.33e5,1.38e5,1.81e5,2.02e5,9665
PIP5K59B,DRSC04290,2.14e5,1.98e5,1.85e5,2.01e5,15670
PIP5K59B,DRSC04403,2.08e5,1.66e5,1.60e5,1.55e5,14930
CG11134,DRSC19384,1.83e5,1.50e5,2.76e5,2.57e5,11455
CG8043,DRSC16368,87245,77215,59820,61440,3895
Gem4b + Gem4c + Glos,DRSC18244,1.30e5,1.30e5,2.57e5,2.49e5,11515
CG8924,DRSC20122,20915,24310,24190,23345,6320
Marcal1,DRSC02718,65085,52145,51035,47065,3105
zpg,DRSC09702,2.94e5,2.50e5,2.90e5,2.26e5,11095
PGRP-SA,DRSC19420,1.42e5,1.27e5,2.07e5,2.08e5,10085
Amy-d,DRSC05919,1.04e5,91595,87995,1.06e5,8055
CG32112,DRSC09815,1.83e5,1.63e5,2.46e5,2.07e5,10370
CG15155,DRSC02456,1.34e5,1.30e5,1.39e5,1.46e5,10060
obst-H,DRSC10935,2.41e5,1.96e5,2.37e5,2.33e5,9682
obst-H,DRSC10940,2.20e5,1.38e5,20282,4610,21765
ATPsynG,DRSC02928,1.09e5,1.30e5,56850,80970,16942
CG34230,DRSC05317,2.49e5,2.21e5,2.74e5,3.30e5,17920
Mrm2,DRSC14310,1.70e5,1.51e5,2.07e5,2.00e5,11600
CG13427,DRSC06389,87555,70665,1.16e5,1.15e5,8225
bug,DRSC07137,1.14e5,1.23e5,2.68e5,2.25e5,9992
CG5644,DRSC10531,2.02e5,2.47e5,2.37e5,2.51e5,15705
Polr1B,DRSC00780,1.03e5,1.02e5,1.34e5,1.29e5,6585
Elal,DRSC16662,11550,14800,12455,16310,1200
Cyp6a16Psi (retired record),DRSC03307,1.31e5,1.31e5,1.37e5,1.02e5,9015
mRpL13,DRSC02076,55945,33875,41215,35285,3660
ppk29,DRSC04205,2.16e5,2.02e5,1.84e5,1.76e5,15870
MICU1,DRSC02752,1.59e5,1.69e5,1.65e5,1.95e5,16485
defl,DRSC10300,1.23e5 (active),1.43e5,83375,64265,23478
mus304,DRSC11372,1.59e5,1.65e5,2.14e5,1.91e5,7250
Rab10,DRSC20572,99685,1.05e5,1.22e5,1.49e5,13865
Syt14,DRSC12331,1.51e5,1.43e5,1.07e5,1.31e5,10345
Damm,DRSC07393,97610,1.09e5,1.42e5,1.17e5,9715
Or49b,DRSC07494,1.05e5,87800,1.03e5,1.07e5,8955
CG12576,DRSC20621,92015 (active),85060,1.47e5,1.47e5,9555
Gapvd1,DRSC19752,1.06e5,90435,1.60e5,1.21e5,7000
dpr11,DRSC12561,75895,56880,54760,46020,3800
dpr11,DRSC12562,1.10e5,82890,65445,53335,7415
dpr11,DRSC12563,67500,75635,98390,81450,5480
obst-F,DRSC10805,1.23e5,1.43e5,1.16e5,1.25e5,7980
CG6951,DRSC10755,51680,50405,55625,50295,4455
mthl15,DRSC01120,1.17e5,84180,97790,79285,5750

Ordered by “control promoter light, run 1, well a” (lowest first): 5 of the entries above.
gene,amplicon,"induced reporter light, run 1, well a","induced reporter light, run 1, well b","control promoter light, run 1, well a","control promoter light, run 1, well b","uninduced reporter light, run 1, well a"
CG33253,DRSC19547,87185,63190,82635,88485,7985
CG33253,DRSC20053,87515,1.00e5,89010,1.48e5,10740
CG13461,DRSC10008,1.87e5,1.52e5,1.71e5,1.80e5,13150
Ssl2,DRSC14395,1.47e5,1.17e5,1.80e5,1.88e5,12810
Vps36,DRSC09785,2.00e5,1.74e5,2.90e5,2.36e5,9935
